Measurements reported in PubChem BioAssay AID743121 (NCATS, 2013).

- Purpose: 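Partners whose loss is lethal together with topoisomerase I blockade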 (primary screen)
- System: MDA-MB-231 cells, a human breast cancer line
- Knock-down reagent: single siRNA against human genes, 20 nM siRNA (0.8 pmol per well)
- Time to read-out: 120 h (drug added 48 h after transfection, read 72 h later)
- Challenge: camptothecin 20 nM (about EC30) for 72 h; vehicle 0.1% DMSO in parallel plates
- Measurement: 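CellTiter-Glo ATP signal, scaled to control siRNA as percent viability; sensitisation given as log2 of untreated divided by camptothecin-treated viability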
- Direction: log2 vehicle/camptothecin viability: higher = stronger sensitisation to camptothecin; viability with camptothecin and viability without drug: higher = more viable cells
- Call rule: 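Active genes have an RSA gene-level p-value below 0.001, computed from the ratios of their separate siRNAs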
In all, the deposit lists about 26,000 reagents; this is an unselected part. 167 of them (0.63%) count as active. 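Calls are per gene from RSA p-values that are not deposited; an individual active-marked siRNA can sensitise only weakly.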 Reagents against one gene are numbered here.

gene symbol,siRNA no.,log2 vehicle/camptothecin viability,viability with camptothecin (% of control),viability without drug (% of control),activity call
HCAR2,1,0.433,62.7,84.7,inactive
HCAR2,2,-0.0322,95.4,93.3,inactive
HCAR2,3,-0.0724,30.5,29,inactive
HCAR2,4,0.186,54.6,62.1,inactive
PLXNA2,1,-0.33,81.7,65,inactive
PLXNA2,2,-0.353,119,93,inactive
PLXNA2,3,-0.312,137,110,inactive
PLXNA2,4,0.0938,87.1,93,inactive
USP45,1,0.0161,89.5,90.5,inactive
USP45,2,-0.00783,99.6,99.1,inactive
USP45,3,-0.314,69.2,55.7,inactive
USP45,4,-0.0878,66.1,62.2,inactive
USP45,5,0.238,56.2,66.3,inactive
USP45,6,-0.907,20,10.6,inactive
NAALADL1,1,-0.348,41.7,32.8,inactive
NAALADL1,2,-0.57,72.5,48.8,inactive
NAALADL1,3,-0.24,74.4,63,inactive
NAALADL1,4,-0.281,129,106,inactive
AGTR1,1,-0.215,96.1,82.8,inactive
AGTR1,2,-0.525,91.6,63.7,inactive
AGTR1,3,-0.207,94.8,82.1,inactive
AGTR1,4,-0.372,77.6,59.9,inactive
UROD,1,-0.0068,86.3,85.9,inactive
UROD,2,-0.0892,62.8,59,inactive
UROD,3,0.0442,70.9,73.1,inactive
TAC1,1,-0.39,87.8,67,inactive
TAC1,2,-0.13,58.6,53.6,inactive
TAC1,3,-0.208,92.8,80.3,inactive
TAC1,4,-0.215,66.1,56.9,inactive
GOLGA5,1,-0.0766,83.4,79.1,inactive
GOLGA5,2,-0.73,85,51.3,inactive
GOLGA5,3,-0.232,60.5,51.5,inactive
GOLGA5,4,-0.0157,95.8,94.7,inactive
GPR174,1,-0.121,109,99.9,inactive
GPR174,2,-0.0472,93.7,90.6,inactive
GPR174,3,-0.402,106,80.4,inactive
GPR174,4,-0.609,87.8,57.6,inactive

Not a retest: 12 of the entries above.
gene symbol,siRNA no.,log2 vehicle/camptothecin viability,viability with camptothecin (% of control),viability without drug (% of control),activity call
USP45,6,-0.907,20,10.6,inactive
NAALADL1,1,-0.348,41.7,32.8,inactive
NAALADL1,2,-0.57,72.5,48.8,inactive
NAALADL1,3,-0.24,74.4,63,inactive
NAALADL1,4,-0.281,129,106,inactive
AGTR1,1,-0.215,96.1,82.8,inactive
AGTR1,2,-0.525,91.6,63.7,inactive
AGTR1,3,-0.207,94.8,82.1,inactive
AGTR1,4,-0.372,77.6,59.9,inactive
UROD,1,-0.0068,86.3,85.9,inactive
UROD,2,-0.0892,62.8,59,inactive
UROD,3,0.0442,70.9,73.1,inactive

The results go on:
gene symbol,siRNA no.,log2 vehicle/camptothecin viability,viability with camptothecin (% of control),viability without drug (% of control),activity call
FBXO4,1,-0.173,58.3,51.7,inactive
FBXO4,2,-0.295,92,75,inactive
FBXO4,3,-0.287,117,96.2,inactive
FBXO4,4,0.0935,39.3,42,inactive
CPO,1,0,87.1,87.1,inactive
CPO,2,-0.362,67.1,52.2,inactive
CPO,3,-0.152,92.5,83.3,inactive
CPO,4,0.0698,96.8,102,inactive
GPBAR1,1,0.281,50.7,61.7,inactive
GPBAR1,2,-0.571,24.3,16.4,inactive
GPBAR1,3,-0.432,115,85.6,inactive
GPBAR1,4,-0.342,74.3,58.6,inactive
XCR1,1,-0.132,81.2,74.1,inactive
XCR1,2,-0.289,89.4,73.2,inactive
XCR1,3,0.00232,84.8,85,inactive
XCR1,4,-0.178,105,92.8,inactive
RYR3,1,0.0263,32.3,32.9,inactive
RYR3,2,-0.117,103,94.8,inactive
RYR3,3,0.000954,79.1,79.1,inactive
RYR3,4,0.0896,49.5,52.7,inactive
SNAP25,1,-0.122,78.8,72.4,inactive
SNAP25,2,-0.174,61.4,54.4,inactive
SNAP25,3,-0.0991,81,75.6,inactive
SNAP25,4,0.273,78.9,95.3,inactive
CYB561D2,1,-0.054,70.3,67.7,inactive
CYB561D2,2,-0.603,64.1,42.2,inactive
CYB561D2,3,0.0622,34.7,36.3,inactive
CYB561D2,4,-0.331,73.1,58.1,inactive
DYRK1A,1,-0.358,115,90,inactive
DYRK1A,2,-0.126,112,102,inactive
DYRK1A,3,-0.0186,103,102,inactive
DYRK1A,4,-0.348,82.7,65,inactive
POLM,1,-0.34,86.2,68.1,inactive
POLM,2,-0.326,57.7,46,inactive
POLM,3,-0.195,72.6,63.4,inactive
OR6C2,1,-0.392,111,84.9,inactive
OR6C2,2,-0.0312,70.7,69.2,inactive
OR6C2,3,-0.0681,49.7,47.4,inactive
OR6C2,4,-0.176,95,84.1,inactive
GABRA5,1,-0.0731,90,85.6,inactive
GABRA5,2,-0.21,124,107,inactive
GABRA5,3,-0.0946,79.9,74.8,inactive
GABRA5,4,-0.0362,96.5,94.1,inactive
PRPS2,1,0.156,69.6,77.5,inactive
PRPS2,2,-0.204,119,103,inactive
PRPS2,3,-0.295,74.3,60.6,inactive
PRPS2,4,0.171,33.2,37.4,inactive
TUBA3C,1,-0.699,45.1,27.8,inactive
TUBA3C,2,-0.486,63.1,45.1,inactive
TUBA3C,3,-0.707,78.7,48.2,inactive
TUBA3C,4,-0.135,66.6,60.6,inactive
